Over roughly 33,000 sequences, “E-score (-0.5 to 0.5)” has its median near -0.0014; the highest 2% begin near 0.25. This is one part of the list.
Target: T1, Cad1 (UniProt P24813)
T1 sequence: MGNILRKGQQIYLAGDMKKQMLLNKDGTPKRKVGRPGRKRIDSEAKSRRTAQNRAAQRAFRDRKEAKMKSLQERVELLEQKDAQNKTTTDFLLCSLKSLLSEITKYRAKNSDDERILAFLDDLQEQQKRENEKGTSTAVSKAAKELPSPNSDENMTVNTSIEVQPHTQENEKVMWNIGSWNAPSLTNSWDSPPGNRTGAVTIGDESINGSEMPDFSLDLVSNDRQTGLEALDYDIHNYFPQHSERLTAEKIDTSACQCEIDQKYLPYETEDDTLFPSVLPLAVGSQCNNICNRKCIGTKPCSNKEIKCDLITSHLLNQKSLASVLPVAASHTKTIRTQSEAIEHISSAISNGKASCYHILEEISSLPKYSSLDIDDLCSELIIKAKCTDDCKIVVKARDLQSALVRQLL
Test: PBM E-score (8-mer binding enrichment) (E-score (-0.5 to 0.5)); higher = stronger / more preferred TF binding
Details: protein concentration: 100 nM; construct: GST-full length
Summary of the method: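 Yeast transcription factors, full-length or as DNA-binding domains, were expressed with a GST tag using PURExpress in vitro transcription/translation. At about 100-200 nM they were applied to universal all-10-mer Agilent arrays, double-stranded by primer extension on fresh or once-stripped slides. Fluorescent anti-GST detected bound protein, and masliner normalised the scans. E-scores for ungapped eight-base words, pooled with reverse complements, came from the Universal PBM Analysis Suite.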

Sequence	PBM E-score
GGTGATAC	-0.0113
ACCGCGTC	0.107
TATCGTAA	0.234
CCAGGTAC	-0.0915
AACCTGCC	-0.164
CGGAGAAA	-0.0643
CAGCAGAC	0.181
CAGCGCCG	-0.112
CCCCTTCG	-0.236
GCACATAA	0.119
CCAGGTAA	-0.00637
AACTAATA	0.351
CCGTGTCC	0.00711
ACGTATCA	0.0975
AAGGTTCG	0.0498
AGATCAAG	0.112
GTTGGCAA	-0.0136
TAGAGTAA	0.0548
CAAAGTCC	-0.0271
TATGTGAA	0.0732
GCCTAACC	-0.0537
CGCTAGGA	0.0288

Sequence	PBM E-score
ACCTGCGT	-0.12
CGCATACG	0.00273
CCTTAAGG	-0.0719
ATCAGTCC	-0.403
GGGTTGAA	-0.0832
GTGGCCAA	0.125
GGCCTTTA	-0.0944
GAAGTAGC	0.0122
AACCACAT	0.0876
GATGGGGA	-0.0576
AAGGGACG	-0.195
TAAAGGCA	-0.0183
ACAAAAGT	0.0645
GGGAATCA	-0.00933
CAAAGCCG	0.161
ACAAAATC	-0.0535
ACTTGATG	0.0397
CGAGTAGA	-0.107
CACGATCC	0.0321
CGGCACTC	-0.11
ATTCAGAA	0.177
AGAGCTAC	-0.0927

An excerpt of these results, bar-delimited:
Sequence | PBM E-score
AAGGGACG | -0.195
TAAAGGCA | -0.0183
ACAAAAGT | 0.0645

2 records picked at random from those above, as already listed:
Sequence	PBM E-score
GTGGCCAA	0.125
ACAAAATC	-0.0535

(next part)

Sequence	PBM E-score
CCGAAGGA	-0.088
CTAATTAG	0.41
AGGGGCCC	-0.152
GCACAAGC	-0.109
ATGTAAAT	0.0692
AAATGATA	0.214
TGATAGCA	0.154
CTGTCCGC	0.0711
AGCGGATG	-0.0114
ATACACGG	-0.0547
GACTTTCA	0.0787
GACAACCC	-0.167
CTTATGTC	0.0384
CGGTTCCC	0.0476
CTCCAGAC	-0.147
GGGACAAA	0.0282
TAGGTTAA	-0.1
CAACCGCC	-0.23
TCCGTTAA	0.132
CCGAGACA	-0.0426
CCGTATAC	0.00374
ATCCGGTG	0.121

Sequence	PBM E-score
CATGGCCC	-0.0799
AAGCGCTT	0.421
CTATAGCC	-0.282
CGGTGCAC	0.00179
ACTATTCA	0.185
AGAAAACC	0.0779
GGAATACC	-0.0063
GCTATTAA	0.202
CCCGGTCA	-0.128
GCACATGA	-0.143
GTTGTCAA	-0.019
ACCATTAG	0.0809
GTAATACA	0.239
ATATTGAC	-0.0375
AAGCCCCT	-0.169
TCACTTAA	-0.0152
ACTACGGC	0.0255
CGACGTTA	0.276
ACTTGACA	-0.0239
CTCTTTAC	-0.0276

Reference: the supplement of paper PMC3334620
